Data published in article PMC3603962.
These are yes or no findings as the source states them, for the method shown. In cells and extracts the contact can be indirect. Some results given as binding are weak or reduced against the parent protein; the word gives no strength. Sequences can lack the tags named with a protein.

T1: V5-tagged Mei-P26 (Drosophila) (UniProt M9PH32)
T1 sequence: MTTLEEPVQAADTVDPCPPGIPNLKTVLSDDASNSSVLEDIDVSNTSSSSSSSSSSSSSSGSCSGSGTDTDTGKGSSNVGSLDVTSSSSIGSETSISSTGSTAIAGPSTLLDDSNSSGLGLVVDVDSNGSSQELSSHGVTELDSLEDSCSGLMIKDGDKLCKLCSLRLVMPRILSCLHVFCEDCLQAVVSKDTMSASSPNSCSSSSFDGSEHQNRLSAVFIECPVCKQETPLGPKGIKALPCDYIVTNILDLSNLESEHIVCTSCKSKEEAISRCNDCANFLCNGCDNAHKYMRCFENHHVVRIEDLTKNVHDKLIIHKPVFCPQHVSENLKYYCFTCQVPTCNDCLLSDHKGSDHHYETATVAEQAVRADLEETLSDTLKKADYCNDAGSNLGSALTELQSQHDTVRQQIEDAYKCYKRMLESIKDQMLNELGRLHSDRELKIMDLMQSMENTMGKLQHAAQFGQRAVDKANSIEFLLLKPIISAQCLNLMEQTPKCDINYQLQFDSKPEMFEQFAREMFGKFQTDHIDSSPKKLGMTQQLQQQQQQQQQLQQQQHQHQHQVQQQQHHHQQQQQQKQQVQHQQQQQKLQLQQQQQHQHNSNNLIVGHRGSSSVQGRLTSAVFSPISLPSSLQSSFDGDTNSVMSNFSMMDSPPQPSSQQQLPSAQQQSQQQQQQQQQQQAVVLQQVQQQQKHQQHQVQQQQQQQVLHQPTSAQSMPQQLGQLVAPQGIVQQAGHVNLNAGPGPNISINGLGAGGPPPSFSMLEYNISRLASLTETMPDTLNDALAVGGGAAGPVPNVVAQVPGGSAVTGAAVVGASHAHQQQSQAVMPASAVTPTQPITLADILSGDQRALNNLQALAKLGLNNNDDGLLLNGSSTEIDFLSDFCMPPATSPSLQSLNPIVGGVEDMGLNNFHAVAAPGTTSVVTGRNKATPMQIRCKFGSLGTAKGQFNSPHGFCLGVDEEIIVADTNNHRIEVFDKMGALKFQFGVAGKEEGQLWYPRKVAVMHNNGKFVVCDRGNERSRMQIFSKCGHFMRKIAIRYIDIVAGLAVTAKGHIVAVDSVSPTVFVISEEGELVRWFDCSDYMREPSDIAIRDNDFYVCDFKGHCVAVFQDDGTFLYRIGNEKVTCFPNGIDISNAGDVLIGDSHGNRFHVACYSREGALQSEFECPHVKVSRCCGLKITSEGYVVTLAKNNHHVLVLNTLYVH

T2: Mei-P26 (endogenous, ovary) (Drosophila (endogenous in ovaries)) (UniProt M9PH32)
T2 sequence: T1 sequence

B1: Myc-tagged Bgcn (protein, UniProt Q9W1I2 1-1215)
chain: MNHIIQDKYIPQQLLYFLAGRRCCQQFPCTFRTSEHEAFANNARSLGLRSQVVHVNGNSCVKVYKQACRHYLEEPKTLVLSSGATLNMFTLLSRKSLMGKEDLELYADLVSMKANASDLPSLHLPLPAIRPPNLRFWTEAQLNFLTAFLGHSLSDEILQSLYASRVIVYNAALCWDKSVFLPLVILDDCRNKKSNVKIMCIERQAILATYNSQRTANFFGEQLGETVGIQLPYFSAVSSSTFIIYSTAQYFLRSLTSQQFRNISHLVVNDVHLHDPYTDILLSEIRMALSSHQNLRVVLLSQMGNPKKFTDFFGEGLQLNMIKQPEVAPRVSYLNELHSCIALAGIHKGPDIYKEIPEAFRANNPRNEQMDKCLQAYGELGTDAALRPFLYAVNYDLAPVNYRHSLTGKTAVHFASELNKANHLRLLLFMGADPYIVDLFQQNAISLAAMNGNHECIDVLNSYSLHGYVVKSAKPDFVDYDLIIDIMYLLRTKPEYSPGEYSPGNILIILPTYYHIVKLNYMILSHCLTGSLQECSIFLLYDNMRNDYLQALVNASDETVKVVLATDIIESLCLKVPFKYQIDTACRLNNVYDTTSCSGDDRFEWVAKDALLRRELILQPNKGDVQCFRLISKEAYEELSETSQPSLQTMQLDKICLAVKLLSPNTIISEYLGITISPPPLINVHHAVQFLKKIDVLDDAEDVTWLGCRLMDIPVSCQLGRMLIFGILLRCLDPILTIVSSLSTADPLGIPFTEDIDNLWDRFTIYIQNSIKKERTYLSDNQFSDHFIFVRLYKEWQNRMHNRTPPLYLKDEYEFMLNGLMEQLTSIRSEIVSSLRAANLIHSRGKLSMNNLNQMSCNWHMVKAALTGGMYPNIYAVDTRKSSLKSAFSGNVSMHPNTVLRDFLEPLNISAQSFRTPWIVCNRQKSHIVYATLVVPLAVAMFSGHPRIRLSPICDSEMSLTDRNVNVFIDEWIWMVMSKATAEMVMRTRYYFFKMYHDLLKHCSELDMWRRDCEPVSQYTVLTDTLSKIFESEDGFVGFFKPPPITFLPTPQLPSLYLLSVNAHFSWAREVEENMLSKPHHFNSHFIERQFFVLYAGGDCEEFHSRNTPAFIESVLGKFVRPIDTPNRHIFVILYRKDPDMMLSISRAKFVNGVFMLQEYFRNNIPVFEILDACVSLNVQTPVFDGRLMSALIDKRVGNLIMELFAFRHHWIHKR
B2: GFP-tagged Bgcn (protein, UniProt Q9W1I2 1-1215)
chain: B1 chain
B3: Sex-Lethal (Sxl) protein (endogenous, ovary) (protein, UniProt P19339 1-354)
chain: MYGNNNPGSNNNNGGYPPYGYNNKSSGGRGFGMSHSLPSGMSRYAFSPQDTEFSFPSSSSRRGYNDFPGCGGSGGNGGSANNLGGGNMCHLPPMASNNSLNNLCGLSLGSGGSDDLMNDPRASNTNLIVNYLPQDMTDRELYALFRAIGPINTCRIMRDYKTGYSFGYAFVDFTSEMDSQRAIKVLNGITVRNKRLKVSYARPGGESIKDTNLYVTNLPRTITDDQLDTIFGKYGSIVQKNILRDKLTGRPRGVAFVRYNKREEAQEAISALNNVIPEGGSQPLSVRLAEEHGKAKAAHFMSQMGVVPANVPPPPPQPPAHMAAAFNMMHRGRSIKSQQRFQNSHPYFDAKKFI
B4: Bam::HA (protein, UniProt P22745 1-442)
chain: MLNARDVCPEGNDDQQLDHNFKQMEEHLALMVEGNENEDPRKATCEYEDTNEDGATCTSGVLSEIQENFGRLRLCDVTAPLLEFHGLDCLQQIQKRSRHFAFDGSPAKKSRSGGVLVTGPKQKQLQKENVWNRKSKGSASADNIEKLPITIEKLHMIGLHGDCLEHNAVLRLMNLFRSLHDHLTADLGFSRQNSMPSDYLFDMPVKSTMPKSLNVRYQLQVLCTKVERFLVQQRRTLEANRHFDFEKYDECDKLLKGFASYLDNFKLLLKPKMRNRNGNSGSNADKFHTQRMERLLIGLRDWIKAAHLSVHVFNWEMDLEHRYSGAMTESHKSLNERAILLSGAELRAAEARGISAEDLFIAQRYKLGGPIYCVLEQHEFLSALIANPETYFPPSVVAICGPQKLGAVSMEQPSASEEEFEETEEVPSSPPRHTGRVPRFRS

Tests used:
[1] = target: T1, V5-tagged Mei-P26 (Drosophila); experiment: co-IP; epitope tagged transgenes expressed in S2 cells; V5-tagged Mei-P26 immunoprecipitated, Myc-tagged Bgcn detected
[2] = target: T2, Mei-P26 (endogenous, ovary) (Drosophila (endogenous in ovaries)); experiment: co-IP; extracts of 100 pairs of wild-type ovaries or 200 pairs of bam mutant ovaries (also ovaries with heat-shock induced Bam::HA; newly eclosed females); immunoprecipitation with anti-Mei-P26 antibodies, blots probed with anti-HA, anti-GFP, anti-Sxl

| Binder | binding [1] | binding [2] |
| --- | --- | --- |
| B1 | binds |  |
| B2 |  | binds |
| B3 |  | binds |
| B4 |  | binds |
